Measurements: paper PMC12695944, “Geminin inhibits DNA replication licensing by sterically blocking CDT1-MCM2 interactions” (Nature Communications, 2025)
Results are given in words; binding and its absence hold for the method and conditions named. Some results given as binding are weak or reduced against the parent protein; the word gives no strength. For part of these data: Where a sequence is shown, tags or fusion partners need not be part of it.

The chains behind the UniProt entries cited, without tags or fusion partners. Where a name states a change or a piece, a line headed by the entry shows the natural chain unless it says otherwise.
UniProt Q13415: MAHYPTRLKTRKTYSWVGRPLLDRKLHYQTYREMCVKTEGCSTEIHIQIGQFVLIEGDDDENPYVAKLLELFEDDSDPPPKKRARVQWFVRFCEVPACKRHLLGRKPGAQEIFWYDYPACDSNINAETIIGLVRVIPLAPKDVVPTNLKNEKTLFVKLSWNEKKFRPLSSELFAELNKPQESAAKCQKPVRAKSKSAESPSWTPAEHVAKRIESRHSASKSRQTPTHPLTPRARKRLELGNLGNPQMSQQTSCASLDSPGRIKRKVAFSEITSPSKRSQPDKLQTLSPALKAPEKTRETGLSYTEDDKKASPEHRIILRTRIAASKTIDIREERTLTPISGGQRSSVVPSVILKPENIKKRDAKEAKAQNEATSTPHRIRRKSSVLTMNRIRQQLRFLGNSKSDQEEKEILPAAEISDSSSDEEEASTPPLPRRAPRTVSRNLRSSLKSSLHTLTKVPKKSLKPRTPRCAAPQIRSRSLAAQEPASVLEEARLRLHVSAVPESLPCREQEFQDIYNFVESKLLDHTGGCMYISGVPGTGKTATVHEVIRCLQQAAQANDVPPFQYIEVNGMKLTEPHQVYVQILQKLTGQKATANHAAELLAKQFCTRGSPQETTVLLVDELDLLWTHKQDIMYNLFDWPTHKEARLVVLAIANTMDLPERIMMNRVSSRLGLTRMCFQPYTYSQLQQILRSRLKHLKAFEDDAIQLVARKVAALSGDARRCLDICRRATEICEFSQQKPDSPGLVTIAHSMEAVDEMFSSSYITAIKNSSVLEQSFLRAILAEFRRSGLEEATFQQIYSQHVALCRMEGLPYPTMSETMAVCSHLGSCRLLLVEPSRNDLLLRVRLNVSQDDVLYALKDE

Experiments:
[1] = target: T1, full-length geminin (Gem^FL) (human) (UniProt O75496); test: co-purification; His-geminin and untagged CDT1 co-expressed in E. coli; HisTrap, tag cleavage, POROS HQ, size exclusion as for geminin
T1 sequence: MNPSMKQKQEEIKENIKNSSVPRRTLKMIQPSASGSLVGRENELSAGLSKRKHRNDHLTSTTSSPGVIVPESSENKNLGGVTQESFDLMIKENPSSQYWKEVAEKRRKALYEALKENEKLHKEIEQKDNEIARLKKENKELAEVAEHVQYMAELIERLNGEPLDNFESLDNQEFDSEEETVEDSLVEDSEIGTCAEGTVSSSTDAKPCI

[2] = target: T2, CDT1^ΔN (N-terminally truncated CDT1^158-546) (human) (UniProt Q9H211); test: SPR; multi-cycle; CDT1^ΔN captured by its N-terminal His tag on an NTA chip; geminin peptides 0.49–250 nM (two-fold steps); 25 °C; 10 mM HEPES, 500 mM NaCl, 50 µM EDTA, 1 mM TCEP-HCl, 0.05% Tween-20, pH 8.0; 1:1 kinetic model of analyte dimer:CDT1, steady-state 1:1 model for Gem^96–160 and Gem^102–160; both purified
T2 sequence: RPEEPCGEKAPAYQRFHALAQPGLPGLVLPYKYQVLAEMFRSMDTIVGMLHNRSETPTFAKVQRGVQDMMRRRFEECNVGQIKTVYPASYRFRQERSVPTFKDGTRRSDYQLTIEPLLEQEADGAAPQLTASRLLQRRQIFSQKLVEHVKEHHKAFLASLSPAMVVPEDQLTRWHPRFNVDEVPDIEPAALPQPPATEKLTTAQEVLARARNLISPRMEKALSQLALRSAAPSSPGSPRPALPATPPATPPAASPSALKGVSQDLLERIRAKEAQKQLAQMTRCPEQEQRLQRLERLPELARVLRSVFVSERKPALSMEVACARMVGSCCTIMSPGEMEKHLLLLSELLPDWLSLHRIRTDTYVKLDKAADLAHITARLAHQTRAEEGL

Gem^96–130 (human) = Gem^96–130 (human) (UniProt O75496); test: SEC-MALS; Superdex 200 Increase 10/300 GL; peptides 500–1000 µM, 100 µL injected; 10 mM HEPES, 150 mM NaCl, 1 mM TCEP-HCl, pH 7.5; 0.25 mL/min; both purified
[3] = target: ORC1-5-CDC6-MCM2-7 complex assembled on origin DNA (the pre-RC / OCCM without CDT1) (human) (UniProt Q13415); test: pre-RC assay (reconstituted proteins on DNA-coupled beads); as the pre-RC assay but with 1 mM ATPγS (arrest at the OCCM); Cy3-CDT1^ΔN; ± geminin from the start; low-salt wash; silver stain and Cy3 fluorescence; both purified
[4] = target: ORC1-5-CDC6-MCM2-7 complex assembled on origin DNA (the pre-RC / OCCM without CDT1) (human) (UniProt Q13415); test: pre-RC assay (reconstituted proteins on DNA-coupled beads); 47 nM ORC1-5, 94 nM ORC6, 94 nM CDC6, 47 nM CDT1, 70 nM MCM2-7, ± 94 nM geminin; 25 mM HEPES-KOH pH 7.5, 250 mM KGlu, 4 mM MgOAc, 0.1% Triton X-100, 1 mM ATP, 30 °C; lamin B2 DNA on streptavidin beads; low-salt wash; DNaseI elution; silver stain or anti-CDT1 blot; both purified
[5] = target: T3, CDT1 C-terminal helical domain (CDT1^CHD, residues 391–546) (human) (UniProt Q9H211); test: condition: 150 nM CDT1^CHD with 300 nM geminin monomer, diluted 1:10 on the instrument; mass photometry; room temperature; proteins incubated at CDT1:geminin monomer ratios 0:1, 1:0, 1:2, 1:3, 2:4, 1:4 (1 part = 150 nM) in pre-RC buffer minus Triton X-100, diluted 1:10 in PBS on the instrument; MHD, CHD at 1:2; both purified
T3 sequence: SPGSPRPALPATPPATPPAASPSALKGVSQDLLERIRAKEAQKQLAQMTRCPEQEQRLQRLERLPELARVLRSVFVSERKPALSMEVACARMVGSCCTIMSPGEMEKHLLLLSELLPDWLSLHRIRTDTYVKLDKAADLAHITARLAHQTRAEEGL

B1: full-length CDT1 (CDT1^FL), untagged, co-expressed with geminin (CG complex) (protein, UniProt Q9H211 1-546)
chain: MEQRRVTDFFARRRPGPPRIAPPKLACRTPSPARPALRAPASATSGSRKRARPPAAPGRDQARPPARRRLRLSVDEVSSPSTPEAPDIPACPSPGQKIKKSTPAAGQPPHLTSAQDQDTISELASCLQRARELGARVRALKASAQDAGESCTPEAEGRPEEPCGEKAPAYQRFHALAQPGLPGLVLPYKYQVLAEMFRSMDTIVGMLHNRSETPTFAKVQRGVQDMMRRRFEECNVGQIKTVYPASYRFRQERSVPTFKDGTRRSDYQLTIEPLLEQEADGAAPQLTASRLLQRRQIFSQKLVEHVKEHHKAFLASLSPAMVVPEDQLTRWHPRFNVDEVPDIEPAALPQPPATEKLTTAQEVLARARNLISPRMEKALSQLALRSAAPSSPGSPRPALPATPPATPPAASPSALKGVSQDLLERIRAKEAQKQLAQMTRCPEQEQRLQRLERLPELARVLRSVFVSERKPALSMEVACARMVGSCCTIMSPGEMEKHLLLLSELLPDWLSLHRIRTDTYVKLDKAADLAHITARLAHQTRAEEGL
binding [1]: binds

SQYWKEVAEKRRKALYEALKENEKLHKEIEQKDNE (peptide, UniProt O75496 96-130, N-terminal acetyl) [Gem^96–130]
binding [2]: no binding (tested: 0.49–250 nM peptide)
binding (Gem^96–130 (human)): no binding (tested: 500–1000 µM injected)

B2: full-length geminin (Gem^FL) (natural protein, human, UniProt O75496 1-209, looked up)
chain: T1 sequence
notes: geminin, human, UniProt O75496, full length; Dimer in solution; In the co-purification of the CG complex the His tag is still on geminin at the HisTrap step and is cleaved afterwards; Plasmid is in Supplementary Data 1; also called WT geminin; source: E. coli BL21 (DE3), purified (HisTrap Excel, POROS HQ, Superdex 200); also co-expressed with untagged CDT1 in E. coli BL21 (DE3) and purified in …
binding [3]: no binding
binding [4]: no binding (tested: 94 nM geminin)
binding [5]: no binding
